# Measured values published in the supplement of paper PMC3334620.
# The full ranking holds about 33,000 sequences; the median of “E-score (-0.5 to 0.5)” is about -0.016, and the highest 2% start at about 0.3. This is one part of the list.
# Target: T1, Yer184c (UniProt P39961)
# T1 sequence: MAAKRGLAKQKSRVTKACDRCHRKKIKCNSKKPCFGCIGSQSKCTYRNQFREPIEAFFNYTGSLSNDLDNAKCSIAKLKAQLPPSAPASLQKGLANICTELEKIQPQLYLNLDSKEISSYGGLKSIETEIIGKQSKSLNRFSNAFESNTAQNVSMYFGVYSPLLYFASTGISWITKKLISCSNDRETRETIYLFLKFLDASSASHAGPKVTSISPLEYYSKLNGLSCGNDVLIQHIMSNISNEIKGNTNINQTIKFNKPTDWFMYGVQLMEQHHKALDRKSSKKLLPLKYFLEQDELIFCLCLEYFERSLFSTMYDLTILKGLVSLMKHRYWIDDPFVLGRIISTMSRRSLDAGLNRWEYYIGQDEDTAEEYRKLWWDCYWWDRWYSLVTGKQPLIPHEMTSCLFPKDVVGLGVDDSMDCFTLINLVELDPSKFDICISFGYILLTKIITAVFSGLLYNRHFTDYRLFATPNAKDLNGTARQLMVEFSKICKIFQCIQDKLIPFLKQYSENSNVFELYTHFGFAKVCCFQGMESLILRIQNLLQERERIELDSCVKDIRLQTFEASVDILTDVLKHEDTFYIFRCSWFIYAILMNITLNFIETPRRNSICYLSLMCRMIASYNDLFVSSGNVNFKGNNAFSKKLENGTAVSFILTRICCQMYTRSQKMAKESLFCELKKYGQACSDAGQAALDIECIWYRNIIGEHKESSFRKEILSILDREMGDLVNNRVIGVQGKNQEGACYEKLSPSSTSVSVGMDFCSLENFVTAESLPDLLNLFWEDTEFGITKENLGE
# Assay: PBM E-score (8-mer binding enrichment) (E-score (-0.5 to 0.5)); higher = stronger / more preferred TF binding
# Conditions: protein concentration: 100 nM; construct: GST-full length
# Summary of the method: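 GST-tagged yeast TFs (full-length or DNA-binding domain) were made by PURExpress in vitro transcription/translation and applied at about 100-200 nM to universal all-10-mer Agilent arrays. The arrays were made double-stranded by primer extension, on fresh or once-stripped slides. Bound protein was detected with fluorescent anti-GST, and scans were normalised with masliner. Each ungapped eight-base word, pooled with its reverse complement, received an E-score (modified Wilcoxon-Mann-Whitney statistic) from the Universal PBM Analysis Suite.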
row,Sequence,PBM E-score
1,CTTTTGGC,-0.00015
2,TAATTCGA,-0.0329
3,ATACTTAA,0.176
4,CTGACATC,0.0723
5,ATTTCAGC,-0.0432
6,CGACCGCA,0.0113
7,AATGACTA,-0.131
8,AAGATGAT,0.00521
9,ATGTGGGG,-0.307
10,AGCTGTAG,-0.00512
11,GGTAGAAC,-0.209
12,GCCCCCAA,-0.337
13,ACATTGGT,-0.0959
14,ACTATAAG,0.0112
15,GAGGTGGC,-0.329
16,CAAAGAGG,-0.147
17,GATTCATA,-0.0189
18,AATCGACT,-0.154
19,CAATAGCC,-0.187
20,CTAGGAGC,-0.114
21,TGGTTCAA,0.116
22,CCTCGCTC,0.192
23,ACGTGACT,-0.16
24,CCTAGCAA,-0.102
25,GACACGAC,-0.166

row,Sequence,PBM E-score
1,CTCCTATA,-0.227
2,ATCATATA,0.164
3,CCACAATC,-0.0716
4,CGTGCCTC,0.0262
5,AGTCCGGC,0.289
6,GAACTGAA,0.127
7,GCACTTAC,-0.169
8,TAAGGACA,0.0402
9,ACATAGAG,-0.206
10,CAGGAAGA,-0.00591
11,ACGTCTGA,0.118
12,ACAATGCT,-0.0491
13,CTGACACC,0.057
14,ACGGACCA,0.327
15,TGGATTAA,-0.0195
16,AGCCGAAA,0.364
17,CTCCCGTA,-0.158
18,CGCTGACA,0.0243
19,GGCTTGCA,0.0295
20,GTGCTAAC,0.135
21,AATTTACC,0.0679
22,GAAAGAAA,0.222
23,CAGTGACC,-0.294
24,CCTGCAAA,-0.261
25,GCTACTGA,-0.0406

row,Sequence,PBM E-score
1,AACGGTAA,0.0584
2,ACTCCCGA,0.0654
3,GTAGGGTA,-0.0746
4,GTAAGCAC,-0.0693
5,TACAAGAA,0.15
6,CCGGGCTA,0.137
7,CTAGTCAC,-0.252
8,CAGGGTAG,-0.257
9,AGTCTACG,-0.288
10,AGCAACAC,0.0607
11,GGTCCACC,-0.103
12,AGCTATCA,0.0965
13,GTCCAGAC,-0.323
14,CTAAGGCA,-0.0165
15,ACACGCGC,-0.0213
16,AATCGTAG,0.00492
17,CGTCCCAC,-0.148
18,CTCGAATA,-0.102
19,GAGTTGCA,0.0414
20,CCGCACAA,-0.0801
21,ATGCACCG,0.035
22,AAAGAATT,0.105
23,CTGCCCAA,-0.173
24,CACAGGTG,-0.225
25,GTTGACAA,0.145

row,Sequence,PBM E-score
1,AACTACCC,-0.156
2,ATACGTGC,-0.00198
3,AAGGTAGA,-0.0978
4,AGATTTAA,0.0597
5,CAACCATG,-0.0968
6,CCGCGGCA,0.409
7,AGCTTGAG,-0.0678
8,GTGGCTCA,-0.222
9,ATCTCCAG,-0.0032
10,CGCTTCCC,-0.0762
11,TAGTAGCA,-0.0252
12,AAAATCTG,0.168
13,AAAGCACC,-0.104
14,CGTATGAG,-0.00255
15,ATCTGTGA,0.119
16,GATGGGCA,-0.106
17,CAAGTCAA,-0.0933
18,TAATGCTA,0.107
19,ACAGTCCA,-0.0452
20,ACAAGAGG,-0.0454
21,GGTTCCTA,0.081
22,GATGGGAA,-0.192
23,CGCCCCGA,0.0207
24,AGGTTAAG,-0.122
25,CCCCAACA,-0.318

row,Sequence,PBM E-score
1,CCTGAAGG,-0.317
2,GCACAAAC,0.0449
3,GGCGAGCC,-0.0299
4,CGGTAACG,0.147
5,CGGCCTAA,0.207
6,CTAGCGAA,-0.134
7,AGATGAAA,0.108
8,CATCGATC,-0.171
9,CAGACGCA,-0.0829
10,GTGACGTA,-0.138
11,AGAGTTCG,0.0922
12,AGTTCCAG,-0.101
13,CGTAAGGA,-0.139
14,ATCGATGA,0.0134
15,CCTCTCCC,-0.237
16,ACCTACGA,-0.0808
17,CCAGTCGC,-0.0844
18,AGTGCCGC,0.123
19,CAGGCCTA,-0.0279
20,CACTGATA,-0.114
21,CCTCAGAA,-0.188
22,ATAAGATG,0.0593
23,ATACCACC,-0.0742
24,CATGCTAG,-0.139
25,CATATGTC,-0.091

row,Sequence,PBM E-score
1,CTCTATCC,-0.0872
2,GTCGACTA,0.192
3,CTTGCTCC,0.0248
4,GGTTCTAC,-0.0886
5,AATTCAAG,0.0925
6,ACTTGGGA,-0.0928
7,GCTCAAAA,0.199
8,ACCAGCAG,-0.299
9,CACTCTAC,-0.0363
10,TCAAACCA,0.0929
11,CGGTGGTC,-0.0197
12,ACATTCAT,0.00303
13,AGCCAGGA,-0.171
14,ATCGGGCA,-0.101
15,GGCTCACC,-0.166
16,TGCAACAA,0.148
17,GTATTAGA,0.149
18,GCGGAGCC,0.0549
19,AAGGAAAG,-0.121
20,CCCTTATA,-0.0606
21,CTCAAGTC,-0.22
22,AACGGGGC,-0.128
23,CTTGTGAA,-0.0589
24,AACGTCAA,0.0142
25,ATAGGACC,-0.156

row,Sequence,PBM E-score
1,AATATGGT,0.0409
2,AAACGCCA,0.089
3,CGTAGTCC,-0.207
4,AAGGTGCA,-0.0345
5,CTCATGCA,-0.206
6,TTATTAAA,0.233
7,GGCATGCC,0.257
8,AGTAGCCA,-0.302
9,ATTTTCTC,0.022
10,GATTGATA,0.0572
11,AGATTCGA,-0.0378
12,AAAGACCT,-0.0941
13,CATGCTGC,-0.208
14,CTGATAGA,0.166
15,ACAGGCAA,-0.0104
16,CATAGGGC,-0.273
17,GACGGGTA,-0.16
18,AGAGCGGC,-0.0082
19,ATATGATC,0.0489
20,ATTGCCAA,-0.0576
21,GTGAAGCA,-0.0446
22,GCCAAAGA,-0.222

# 52 entries from above, set out differently.
row | Sequence | PBM E-score
18 | AGTGCCGC | 0.123
19 | CAGGCCTA | -0.0279
20 | CACTGATA | -0.114
21 | CCTCAGAA | -0.188
22 | ATAAGATG | 0.0593
23 | ATACCACC | -0.0742
25 | CATATGTC | -0.091
1 | CTCTATCC | -0.0872
2 | GTCGACTA | 0.192
3 | CTTGCTCC | 0.0248
4 | GGTTCTAC | -0.0886
5 | AATTCAAG | 0.0925
6 | ACTTGGGA | -0.0928
7 | GCTCAAAA | 0.199
8 | ACCAGCAG | -0.299
9 | CACTCTAC | -0.0363
10 | TCAAACCA | 0.0929
11 | CGGTGGTC | -0.0197
12 | ACATTCAT | 0.00303
13 | AGCCAGGA | -0.171
14 | ATCGGGCA | -0.101
15 | GGCTCACC | -0.166
16 | TGCAACAA | 0.148
17 | GTATTAGA | 0.149
18 | GCGGAGCC | 0.0549
19 | AAGGAAAG | -0.121
20 | CCCTTATA | -0.0606
21 | CTCAAGTC | -0.22
22 | AACGGGGC | -0.128
23 | CTTGTGAA | -0.0589
24 | AACGTCAA | 0.0142
25 | ATAGGACC | -0.156
1 | AATATGGT | 0.0409
2 | AAACGCCA | 0.089
3 | CGTAGTCC | -0.207
4 | AAGGTGCA | -0.0345
5 | CTCATGCA | -0.206
6 | TTATTAAA | 0.233
7 | GGCATGCC | 0.257
9 | ATTTTCTC | 0.022
10 | GATTGATA | 0.0572
11 | AGATTCGA | -0.0378
12 | AAAGACCT | -0.0941
13 | CATGCTGC | -0.208
14 | CTGATAGA | 0.166
15 | ACAGGCAA | -0.0104
16 | CATAGGGC | -0.273
17 | GACGGGTA | -0.16
18 | AGAGCGGC | -0.0082
19 | ATATGATC | 0.0489
21 | GTGAAGCA | -0.0446
22 | GCCAAAGA | -0.222
